# According to patent US20230210968A1, “RIBONUCLEOPROTEIN APPROACH TO BOOST THE STING SIGNALING FOR CANCER IMMUNOTHERAPY” (MASSACHUSETTS INSTITUTE OF TECHNOLOGY, priority 2020, published 2023):
# B1: mSTINGΔTM (mouse STING amino acids 138-378) (other)
# chain: LTPAEVSAVCEEKKLNVAHGLAWSYYIGYLRLILPGLQARIRMFNQLHNNMLSGAGSRRLYILFPLDCGVPDNLSVVDPNIRFRDMLPQQNIDRAGIKNRVYSNSVYEILENGQPAGVCILEYATPLQTLFAMSQDAKAGFSREDRLEQAKLFCRTLEEILEDVPESRNNCRLIVYQEPTDGNSFSLSQEVLRHIRQEEKEEVTMNAPMTSVAPPPSVLSQEPRLLISGMDQPLPLRTDLI
# notes: Runs as a dimer (~60 kDa) without cGAMP and as a tetramer (~120 kDa) with cGAMP; Entries with this molecule as both partners are self-association; also called mouse STINGΔTM; recombinant transmembrane-deficient STING
# Assay: FPLC analysis of cGAMP-induced self-assembly (tetramerization)
# Details: PBS, increasing molar ratios of cGAMP
molecule,measurement,value
B1,self-assembly on titration with cGAMP (FPLC),transition to a tetrameric conformation
